In PMC5681675:
No constants are given. Whether binding was seen depends on the method and setting. In cells and extracts the contact can be indirect. Some entries that bind do so weakly or less than the wild type. Where a sequence is shown, tags or fusion partners need not be part of it.

The chains behind the UniProt entries cited, without tags or fusion partners. Residues count along the entry.
UniProt O95831, residues 102-613: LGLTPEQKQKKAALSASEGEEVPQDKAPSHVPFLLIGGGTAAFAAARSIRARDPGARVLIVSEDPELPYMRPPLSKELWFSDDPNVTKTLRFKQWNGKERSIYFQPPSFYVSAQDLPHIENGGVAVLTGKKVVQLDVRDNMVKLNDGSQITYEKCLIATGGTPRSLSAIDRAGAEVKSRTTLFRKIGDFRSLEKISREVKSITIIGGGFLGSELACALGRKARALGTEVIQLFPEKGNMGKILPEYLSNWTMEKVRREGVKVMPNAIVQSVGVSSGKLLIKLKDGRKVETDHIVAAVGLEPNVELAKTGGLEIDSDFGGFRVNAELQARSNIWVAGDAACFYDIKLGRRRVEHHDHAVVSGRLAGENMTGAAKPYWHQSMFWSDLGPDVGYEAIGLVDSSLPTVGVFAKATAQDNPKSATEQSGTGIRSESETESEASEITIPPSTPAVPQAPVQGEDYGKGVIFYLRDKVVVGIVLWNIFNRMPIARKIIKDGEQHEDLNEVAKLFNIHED

Molecular target: T1, FLAG-NPRL2-GFP (human) (UniProt Q8WTW4)
T1 sequence: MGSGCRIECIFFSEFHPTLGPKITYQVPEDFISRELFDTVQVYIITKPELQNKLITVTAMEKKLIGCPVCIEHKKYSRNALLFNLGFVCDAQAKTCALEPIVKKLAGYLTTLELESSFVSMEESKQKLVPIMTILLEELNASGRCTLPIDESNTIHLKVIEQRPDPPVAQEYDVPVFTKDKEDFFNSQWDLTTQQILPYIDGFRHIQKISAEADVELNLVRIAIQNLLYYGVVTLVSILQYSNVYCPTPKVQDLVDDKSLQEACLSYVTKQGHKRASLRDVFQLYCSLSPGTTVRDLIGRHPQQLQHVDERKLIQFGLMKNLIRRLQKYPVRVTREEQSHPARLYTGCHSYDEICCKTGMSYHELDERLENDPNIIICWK
Assay: co-IP; immunoprecipitates from HEK293 cells stably expressing GFP or FLAG-NPRL2-GFP, analysed by immunoblotting

binding: binds
Substance: apoptosis-inducing factor (AIF) (from UniProt O95831 102-613)
